# From patent US11331387B2, “Self-assembled drug-loading system and preparation method therefor” (SHANGHAI SELECTION BIOSCIENCE LLC., priority 2016, dated 2022)
# Test: photothermal effect at the solution level, 808 nm laser, infrared imaging camera
# Type: physicochemical
# Settings: continuously irradiated with 808 nm laser
smiles,measurement,value
"CC1(C)C(/C=C/C=C/C=C/C=C2\N(CCCCS(=O)(=O)[O-])c3ccc4ccccc4c3C2(C)C)=[N+](CCCCS(=O)(=O)[O-])c2ccc3ccccc3c21.[Na+] [ICG, indocyanine green]",temperature raised to,53.9 °C
